The results in this text go back to publication PMC4639907.

The chains behind the UniProt entries cited, without tags or fusion partners.
UniProt P61809: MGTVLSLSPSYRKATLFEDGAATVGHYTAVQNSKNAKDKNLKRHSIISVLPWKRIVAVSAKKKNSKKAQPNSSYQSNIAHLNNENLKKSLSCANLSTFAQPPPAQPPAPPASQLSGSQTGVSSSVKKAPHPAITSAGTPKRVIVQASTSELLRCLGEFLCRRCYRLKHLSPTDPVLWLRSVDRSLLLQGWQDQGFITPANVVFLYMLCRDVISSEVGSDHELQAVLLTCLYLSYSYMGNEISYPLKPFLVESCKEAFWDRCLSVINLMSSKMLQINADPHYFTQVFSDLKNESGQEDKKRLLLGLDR

The target in the assay is p35, the activator of cyclin-dependent kinase 5 (Cdk5) (mouse (endogenous in hippocampus)) (UniProt P61809). Nature of the assay: co-IP; hippocampal lysates of 3-month-old mice immunoprecipitated with p35 or PJA2 antibodies (IgG as control), western blot of the co-immunoprecipitates.

Results are given in words; binding and its absence hold for the method and conditions named. In cells and extracts the contact can be indirect. Some binding calls cover weakened binding; strength is not graded here.

B1: E3 ubiquitin ligase Praja-2 (PJA2) (protein, UniProt Q80U04 1-707)
chain: MSQYTEKEPSVMDQESSKAAWPKPAGGYQTITGRRYGRRHAYVSFKPCMTRHERSLGRAGDDYEVLELDDVPKENTSGSSSLDQVHPALPNEPTVEKSETEISTCGPALNQSTESSPSIATVCHSEEVRETLESNTNLHNRTETEHTPAVCNVSSVQNGIMLVHTDSYDPDSKHDENGSLQLGAEAVEGGRHQKGLGRAVFELENGEAEIYADLSPSVPSLNGEISEAFEELDSAPLEKSSTADAELVHQNGQEFQRSSEDGVVRKRRQDDTDQGRQTENSTEDADCAPGHVEQNTSDRANHHGSSPEQVVRPKVRKVISSSQVDQEIGFNRHEAKQRSVQRWREALEVEECSSDDPIIKCDDYDGDHDCMFLTPTYSRVTQRETERNRVTSENGATASGRQESRDNAFWNACGEYYQLFDKDEDSSECSDGEWSASLPHRFSGTEKDQSSSDDSWETLPGKDENDPELQSDSSGPEEENQELSLQEGEQTSLEEGEIPWLQYNEVNESSSDEGNEPANEFAQPEAFMLDGNNNLEDDSSVSEDLDVDWSLFDGFADGLGVAEAISYVDPQFLTYMALEERLAQAMETALAHLESLAVDVEVANPPASKESIDGLPETLVLEDHTAIGQEQCCPICCSEYIKDDIATELPCHHFFHKPCVSIWLQKSGTCPVCRRHFPPAVIDASAAASSDPDPDASPANDNAEEAP
In the case of B1, the binding result is on record as “binds”.
